In paper PMC7819943, “Rice protein-binding microarrays: a tool to detect cis-acting elements near promoter regions in rice” one finds binding signal data, which are given here for 42 sequences.

Amino acid sequences for entries named in this document (tags omitted).
UniProt Q0JBA9, entry or part of it: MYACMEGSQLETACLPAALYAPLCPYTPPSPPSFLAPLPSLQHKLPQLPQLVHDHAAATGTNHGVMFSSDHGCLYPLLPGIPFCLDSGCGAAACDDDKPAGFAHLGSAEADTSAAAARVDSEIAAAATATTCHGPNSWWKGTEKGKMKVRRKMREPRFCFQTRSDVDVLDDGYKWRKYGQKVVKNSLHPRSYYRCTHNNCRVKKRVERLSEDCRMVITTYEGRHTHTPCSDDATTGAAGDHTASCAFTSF

The other results are listed elsewhere or left out.

This assay has as its target OsWRKY34 (Oryza sativa, UniProt Q0JBA9 1-250). In words: protein-binding microarray (RPBM); PBS, 2% BSA, 51.3 ng/ul salmon testes DNA, 50 uM zinc acetate, 200 nM TF, 25 C, 1 h; high values mean tight binding. The note with it: protein: recombinant; tags: N-terminal polyhistidine and DsRed monomer fusion (pET32a); label: CyDye5-dUTP incorporated in the synthesized complementary strand; 3' TTTTT single-stranded linker to array surface; dsDNA, one strand shown. A digest of the protocol: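 The binding signal for each feature is its fluorescence intensity in arbitrary units. An Axon 4000B scanner was used to read a custom Agilent array that had been made double-stranded with Cy5-dUTP primer extension, blocked with 2% BSA, incubated at 25 °C for 1 h with 200 nM protein in PBS, 2% BSA, salmon testes DNA and 50 µM zinc acetate, and washed. The protein was an N-terminal polyhistidine–DsRed transcription factor fusion from E. coli BL21-CodonPlus, purified on Ni–NTA.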
On to “ATACCGTTTCCTTTTCTTGTTCACTTGTTTTAAACTGACCCGGAGTCACCTAGTGCAG”, for which the binding signal was 9060 fluorescence intensity (a.u.).
“TGCATCCTTCTACCGCCCGCATTGCTTTTGCTCCCTCCTCCGGAGTCACCTAGTGCAG”: the binding signal is 8160 fluorescence intensity (a.u.).
For “TCGTGAAATCAAACCATTTTTCTATACCCAGCTTCGTCTTCGGAGTCACCTAGTGCAG”, the binding signal is 9370 fluorescence intensity (a.u.).
With “CGGAGGTGACAAAAACTATCTGCTCCACTTTCATCCCTACCGGAGTCACCTAGTGCAG” the figure was 8310 fluorescence intensity (a.u.).
Consider “GGTTGCTTCCATAATCCCCAGTCCCCACTACTGCTCATCACGGAGTCACCTAGTGCAG”, for which the binding signal was 11000 fluorescence intensity (a.u.).
With “TTCTTGCCCTGCTTGTTCATTTATCTTATTCAAAATATTTCGGAGTCACCTAGTGCAG” the figure was 9580 fluorescence intensity (a.u.).
On to “GATTCGTTGACATACCTCAGATGAACTTATTCCTAGGGCACGGAGTCACCTAGTGCAG”, for which the binding signal was 8090 fluorescence intensity (a.u.).
In the case of “ACTCTTCGCTCCGCCGCCGTCTCCTCCGCCTCGGGCTTTCCGGAGTCACCTAGTGCAG”, the binding signal is 11000 fluorescence intensity (a.u.).
“CTTTCTTCTCGCTTGCTGAAGGCGGCTCTTTTACGTCTGTCGGAGTCACCTAGTGCAG”: the binding signal is 9670 fluorescence intensity (a.u.).
Take “TATATAACTTAACATGTTTCATCACTAACTACCTAAGCTACGGAGTCACCTAGTGCAG”: the binding signal was 8270 fluorescence intensity (a.u.).
For the sequence “GCTCACCGGACAACATTTCATCGTCGATCATCAACCGCATCGGAGTCACCTAGTGCAG”, the binding signal is 9770 fluorescence intensity (a.u.).
The result for “AACCCCTTATACACCTACTACGCATCTACTAGTACCACTACGGAGTCACCTAGTGCAG” reads 8530 fluorescence intensity (a.u.); that for “CACCTGCGCCTCTCCACCGGTGATCTCCTCCCTTCTCACCCGGAGTCACCTAGTGCAG”, 8540 fluorescence intensity (a.u.).
As for “ACCGGCCAACCCTCCCCACCCCAGCCGCCGGCCGCCAGGCCGGAGTCACCTAGTGCAG”, the binding signal was 8520 fluorescence intensity (a.u.).
The result for “GGAGGGGCGGCGATCGAGCAGAGCAGGGGAGGGAATCCTGCGGAGTCACCTAGTGCAG” reads 8310 fluorescence intensity (a.u.).
Consider “CCTATGTTATTACCTTGACGGCTTGACCGCTCGACTCTATCGGAGTCACCTAGTGCAG”, for which the binding signal is 8410 fluorescence intensity (a.u.).
Turning to “TTTCGTGATTTTCCCCGGTTGGCCACTACTTTTGCGATTTCGGAGTCACCTAGTGCAG”, the binding signal is 9570 fluorescence intensity (a.u.).
On to “CACCCCTACCTGGCGCGCCAACTGTCGAAACAATATTTCACGGAGTCACCTAGTGCAG”, for which the binding signal is 8810 fluorescence intensity (a.u.).
As to “GCCGGAGTCCATCGCCCTACATTGCCCACCAACCGCACGCCGGAGTCACCTAGTGCAG”, the binding signal is 10200 fluorescence intensity (a.u.).
As to “ATTCCCGCCTTGGCGTTTGCTTCGTCTTCCCCGTCGCATTCGGAGTCACCTAGTGCAG”, the binding signal was 11100 fluorescence intensity (a.u.).
Regarding “ATTCTCCTCCCCGCCGGCCTCTTATCCATACTGCGAGATGCGGAGTCACCTAGTGCAG”, the binding signal was 8390 fluorescence intensity (a.u.).
For “GCACGACCTTAATAATGCATGCGTAACTGTTCTCCCGTCACGGAGTCACCTAGTGCAG”, the binding signal is 9530 fluorescence intensity (a.u.).
The result for “AGTCACCGCCGCCGCATCTGCCGCCCCGCGAGTCGCCGTCCGGAGTCACCTAGTGCAG” reads 8460 fluorescence intensity (a.u.); that for “GTTCGGGGCGTGACAATATGTTAGGGTGTGACAGTTAGTTCGGAGTCACCTAGTGCAG”, 8130 fluorescence intensity (a.u.).
For the sequence “GAGCTCTGTTCTTTTCCCCGTTTCTTGGTACTGGTGATTCCGGAGTCACCTAGTGCAG”, the binding signal is 10700 fluorescence intensity (a.u.).
For the sequence “ACTCACTCATCACTTCTGTTCCTTGAATTTATTTGTATTTCGGAGTCACCTAGTGCAG”, the binding signal is 13000 fluorescence intensity (a.u.).
In the case of “AGGCACGCCACGCACCCACCGCTCACCAATCCCCAATTCCCGGAGTCACCTAGTGCAG”, the binding signal was 11800 fluorescence intensity (a.u.).
Take “GTAGGGCTGAAATTTTACATGTTGCATGGTCGTTGGACACCGGAGTCACCTAGTGCAG”: the binding signal is 9190 fluorescence intensity (a.u.).
For “CTGAAGTATTTTGCAAACCATTTTACATATATACATTTGTCGGAGTCACCTAGTGCAG”, the binding signal was 8530 fluorescence intensity (a.u.).
The result for “AGTATTTTATAGCGGTCTTTAGATTTATGAGGTCTATTACCGGAGTCACCTAGTGCAG” reads 8530 fluorescence intensity (a.u.); that for “TTGTCATCTTCCACTCTGTCTTGTCTTTTCTCTGCCTTGACGGAGTCACCTAGTGCAG”, 9340 fluorescence intensity (a.u.); that for “CATCGGTTTTCTGGGTGTACGGTGTACCCCACGTGTTAGGCGGAGTCACCTAGTGCAG”, 8510 fluorescence intensity (a.u.).
Take “GATTTGCTAGTCCTCACGGCCGCACGCTCTCGCATCCTCGCGGAGTCACCTAGTGCAG”: the binding signal is 9810 fluorescence intensity (a.u.).
With “CCTTCACCTCTATCTTTCTCTCATTTTCTCCTCTCCCTCTCGGAGTCACCTAGTGCAG” the figure was 8540 fluorescence intensity (a.u.).
In the case of “GTTATCAGCTTTTCTTTTTTTTTTGAAATTTCAGATTATTCGGAGTCACCTAGTGCAG”, the binding signal is 8980 fluorescence intensity (a.u.).
As for “TTCCGAGTTCACATTCATCATTTCGCTATGCTTATGGACTCGGAGTCACCTAGTGCAG”, the binding signal was 10900 fluorescence intensity (a.u.).
With “CCACCCCAAGTTACTTTTCTAGTTGTATCTACCCTCTAATCGGAGTCACCTAGTGCAG” the figure was 9050 fluorescence intensity (a.u.).
Take “TCTCTTCTTCTTCTCCAACTTCTTTTTTCTCTTCTTCTTCCGGAGTCACCTAGTGCAG”: the binding signal is 9680 fluorescence intensity (a.u.).
With “CACCTCCACTGCTACATATCCCACATCACACATCCCCTCTCGGAGTCACCTAGTGCAG”, the binding signal is 11100 fluorescence intensity (a.u.).
In the case of “GAGGGGAGGGGTTTGGTTTGCTTGGACACTTTGGTTTGGTCGGAGTCACCTAGTGCAG”, the binding signal was 20100 fluorescence intensity (a.u.).
As to “AAGTATCTTGTTTTTCATTGGCTAGGTGAACTTTGTTGCTCGGAGTCACCTAGTGCAG”, the binding signal is 9170 fluorescence intensity (a.u.).
On to “GCAGTTTTTCTTGTCTTTATTCTTATTGATTGCAGAATCACGGAGTCACCTAGTGCAG”, for which the binding signal is 9390 fluorescence intensity (a.u.).
